# From PubChem BioAssay AID248 (DTP/NCI, 2004)
# The list shows only some results of the screen, not a fair sample: it gathers tests that were run many times, whatever their T/C, doses with no T/C, and many T/C values between a quarter and a half above the control. Further doses and runs are listed elsewhere. T/C: endpoint of the treated group in % of that of the vehicle group. Some doses have a count of surviving animals in place of a T/C: the source files T/C as zero there, which appears to mark a toxic dose or a test without result, not a measured value. Some doses without a T/C left all or most animals alive at the check, yet need not have been tolerated: the source hardly ever lists a survival T/C far under the control, and the zero likely stands for such cases as well. Counts of survivors are from the toxicity check (mostly the fifth day) where no day follows; animals may have died later. Schedules are NCI's codes, read here as Q, the interval in days (D) or hours (H), X, the number of doses. Some entries were tested several times; their values stand side by side, smallest first. Some schedules carry Z or #; the key to these is not given. For survival time, this PubChem deposit counts one and a half times the control or more as active, and values a quarter to a half above the control carry no call in these data; other NCI protocols may use other cut-offs. Some T/C values carry the count of animals alive at the toxicity check (mostly the fifth day); where none is given, no animal had died by that day. Signs of the kind (2×) give the number of equal values in this list.
# System: L1210 leukemia ip in BDF1 mice, survival T/C
# Test: NCI In Vivo Anticancer Drug Screen. Data for tumor model L1210 Leukemia (intraperitoneal) in B6D2F1 (BDF1) mice
# Settings: T/C endpoint: mean survival time, higher T/C = longer survival
# [1] = dose: 25.0 mg/kg/injection, schedule: Q01DX009 (ip), vehicle: saline with Tween-80
# [2] = dose: 200.0 mg/kg/injection, schedule: Q01DX009 (ip), vehicle: saline with Tween-80
# [3] = dose: 400.0 mg/kg/injection, schedule: Q04DX003 (ip), vehicle: saline with Tween-80
# [4] = dose: 400.0 mg/kg/injection, schedule: Q04DX003 (ip), vehicle: saline
# [5] = dose: 200.0 mg/kg/injection, schedule: Q04DX003 (ip), vehicle: saline
# [6] = dose: 400.0 mg/kg/injection, schedule: Q04DX002 (ip), vehicle: Klucel (hydroxypropylcellulose) (HPC)
# [7] = dose: 200.0 mg/kg/injection, schedule: Q01DX009 (ip), vehicle: Klucel (hydroxypropylcellulose) (HPC)
# [8] = dose: 400.0 mg/kg/injection, schedule: Q01DX009 (ip), vehicle: Klucel (hydroxypropylcellulose) (HPC)
# [9] = dose: 200.0 mg/kg/injection, schedule: Q04DX002 (ip), vehicle: saline with Tween-80
# [10] = dose: 400.0 mg/kg/injection, schedule: Q04DX002 (ip), vehicle: saline with Tween-80
# [11] = dose: 400.0 mg/kg/injection, schedule: Q01DX009 (ip), vehicle: saline with Tween-80
# [12] = dose: 400.0 mg/kg/injection, schedule: Q01DX001 (ip), vehicle: carboxymethylcellulose (CMC)
structure (smiles),measurement,setting,value
CC(=O)Nc1nc(Cl)c([N+](=O)[O-])c(SCc2ccccc2)n1,survivor count,[1],5 of 6
same,survivor count,"dose: 50.0 mg/kg/injection, schedule: Q01DX009 (ip), vehicle: saline with Tween-80",6 of 6
same,survivor count,"dose: 100.0 mg/kg/injection, schedule: Q01DX009 (ip), vehicle: saline with Tween-80",6 of 6
same,survivor count,[2],1 of 6
same,survivor count,[3],2 of 6
c1ccc([P+](C[P+](c2ccccc2)(c2ccccc2)c2ccccc2)(c2ccccc2)c2ccccc2)cc1,survivor count,"dose: 6.25 mg/kg/injection, schedule: Q01DX009 (ip), vehicle: Klucel (hydroxypropylcellulose) (HPC)",5 of 6
COC(=O)NC1CC/C=C\CCC1I (stereo not given),survivor count,"dose: 100.0 mg/kg/injection, schedule: Q04DX002 (ip), vehicle: DMSO",2 of 3
same,survivor count,"dose: 400.0 mg/kg/injection, schedule: Q04DX002 (ip), vehicle: DMSO",0 of 3
Cn1nnc(CC[N+]2(C)CCOCC2)n1,survivor count,[4],1 of 6
NC(=O)c1ccc[n+](CC(=O)NCc2ccc(Cl)cc2)c1,survivor count,[5],2 of 6
same,survivor count,[4],0 of 6
COc1ccc(CC2=NCCN2)cc1,survivor count,"dose: 200.0 mg/kg/injection, schedule: Q04DX003 (ip), vehicle: saline with Tween-80",2 of 6
same,survivor count,[3],0 of 6
C=CCSCC(=O)Cl,survivor count,"dose: 200.0 mg/kg/injection, schedule: Q04DX002 (ip), vehicle: saline",2 of 3
same,survivor count,"dose: 400.0 mg/kg/injection, schedule: Q04DX002 (ip), vehicle: saline",0 of 3
CN(C)CCCN1c2cc(Cl)ccc2Sc2ccc(Cl)cc21,survivor count,[6],0 of 3
COc1ccc(N)cc1,survivor count,"dose: 400.0 mg/kg/injection, schedule: Q01DX009 (ip), vehicle: alcohol",5 of 6
C=CC(COC(C)=O)N1CC1 (stereo not given) (tested in a mixture with another compound),T/C,"dose: 15.0 mg/kg/injection, schedule: Q04DX003 (ip), vehicle: saline",126 % of control
same,survivor count,"dose: 100.0 mg/kg/injection, schedule: Q04DX003 (ip), vehicle: saline",1 of 6
same,survivor count,[5],0 of 6
same,survivor count,[4],0 of 6
[CH3][Sb]([CH3])([CH3])([O]C(=O)CF)[O]C(=O)CF,survivor count,"dose: 10.0 mg/kg/injection, schedule: Q04DX003 (ip), vehicle: saline",6 of 6
same,survivor count,"dose: 20.0 mg/kg/injection, schedule: Q04DX003 (ip), vehicle: saline",4 of 6
O=C(O)c1cccc(CBr)c1CBr,survivor count,[1],0 of 6
Cc1ccc(S(=O)(=O)N(N)C(=O)c2ccccc2)cc1,survivor count,"dose: 75.0 mg/kg/injection, schedule: Q01DX001 (ip), vehicle: saline",6 of 6
same,survivor count,"dose: 150.0 mg/kg/injection, schedule: Q01DX001 (ip), vehicle: saline",6 of 6
same,survivor count,"dose: 300.0 mg/kg/injection, schedule: Q01DX001 (ip), vehicle: saline",6 of 6
COc1ccc(NC(=O)Oc2ccccc2C(N)=O)c(OC)c1,survivor count,[7],4 of 6
same,survivor count,[8],0 of 6
O=C(NNc1ccccc1)c1ccccc1,survivor count,[8],1 of 6
COc1cc(C[N+]23CC[N+](Cc4cc(OC)cc(OC)c4)(CC2)C3)cc(OC)c1,survivor count,"dose: 100.0 mg/kg/injection, schedule: Q01DX001 (ip), vehicle: saline",0 of 4
same,survivor count,"dose: 200.0 mg/kg/injection, schedule: Q01DX001 (ip), vehicle: saline",0 of 4
same,survivor count,"dose: 400.0 mg/kg/injection, schedule: Q01DX001 (ip), vehicle: saline",0 of 4
Cc1csc2nccc(Cl)c12,survivor count,[9],2 of 3
CSc1ccc(P(=NS(=O)(=O)c2ccc(C)cc2)(c2ccc(SC)cc2)c2ccc(SC)cc2)cc1,survivor count,[8],1 of 6
CCCCC1CCC2=C(CC(O)(CCCC)CC3=C1C(=O)OC3=O)C(=O)OC2=O (stereo not given),survivor count,[10],0 of 3
Cc1ccc(Cl)cc1NC(=O)N1CCCCC1C (stereo not given),T/C,"dose: 100.0 mg/kg/injection, schedule: Q04DX002 (ip), vehicle: saline with Tween-80","100 (2×), 103, 128 % of control"
same,T/C,[9],"91, 92, 95, 98 % of control"
same,survivor count,[11],3 of 3 and 6 of 6
same,T/C,[10],"89, 102, 106 % of control [5 of 6 alive]"
same,survivor count,[10],1 of 3
O=C(O)CS(=O)(=O)c1ccccc1,survivor count,[4],4 of 6
CCCCOC(c1ccccc1)N1CCCCC1 (stereo not given),survivor count,"dose: 50.0 mg/kg/injection, schedule: Q01DX001 (ip), vehicle: carboxymethylcellulose (CMC)",4 of 4
same,survivor count,"dose: 100.0 mg/kg/injection, schedule: Q01DX001 (ip), vehicle: carboxymethylcellulose (CMC)",4 of 4
same,survivor count,[12],4 of 4
COCC(=O)C(C(C)=O)C(c1ccc2c(c1)OCO2)C(C(C)=O)C(=O)COC (stereo not given),survivor count,[2],6 of 6
same,survivor count,[11],6 of 6
Clc1ccc(-c2cc(=[N+]3CCOCC3)ss2)cc1,survivor count,"dose: 400.0 mg/kg/injection, schedule: Q01DX009 (ip), vehicle: water",3 of 6
O=C(NO)c1cccc(C(=O)NO)n1,survivor count,"dose: 800.0 mg/kg/injection, schedule: Q01DX015 (ip), vehicle: water",3 of 6
COc1c2c(c3c(c1O)c(=O)c1ccccc1n3C)OCO2,survivor count,[12],4 of 4
CCCCCCCCCCCCCCCCC(C(=O)O)C(O)(CC(=O)O)C(=O)O (stereo not given),survivor count,"dose: 150.0 mg/kg/injection, schedule: Q01DX Z (ip), vehicle: carboxymethylcellulose (CMC)",0 of 6
same,survivor count,"dose: 300.0 mg/kg/injection, schedule: Q01DX Z (ip), vehicle: carboxymethylcellulose (CMC)",0 of 6
same,survivor count,"dose: 600.0 mg/kg/injection, schedule: Q01DX Z (ip), vehicle: carboxymethylcellulose (CMC)",0 of 6
CCSN1C(=O)c2ccccc2C1=O,survivor count,"dose: 200.0 mg/kg/injection, schedule: Q04DX002 (ip), vehicle: Klucel (hydroxypropylcellulose) (HPC)",0 of 3
same,survivor count,[6],0 of 3
COc1cccc(/C=C2/COC/C(=C\c3cccc(OC)c3OC)C2=O)c1OC,survivor count,"dose: 400.0 mg/kg/injection, schedule: Q01DX009 (ip), vehicle: saline",2 of 6
CCCCCCCCCCP(=O)(CCCC)CCCC,survivor count,"dose: 25.0 mg/kg/injection, schedule: Q01DX009 (ip), vehicle: Klucel (hydroxypropylcellulose) (HPC)",6 of 6
same,survivor count,"dose: 50.0 mg/kg/injection, schedule: Q01DX009 (ip), vehicle: Klucel (hydroxypropylcellulose) (HPC)",6 of 6
same,survivor count,[7],5 of 6
same,survivor count,[8],1 of 5
